# Measured values published in patent US9993536B2, “Peptides and combination of peptides and scaffolds for use in immunotherapy against renal cell carcinoma (RCC) and other cancers” (immatics biotechnologies GmbH, priority 2015, dated 2018).
# For part of these data: Expression grades refer to the transcript from which the peptide derives; gene names, where given, were looked up from the sequence.
# Key:
# [1] = test system: source genes (mRNA) in RCC and normal tissues; assay: Expression profiling of genes encoding the peptides (Affymetrix microarray); parameters: species or system human; key: very highly over-expressed in tumors compared to a panel of normal tissues (+++); highly over-expressed in tumors compared to a panel of normal tissues (++); over-expressed in tumors compared to a panel of normal tissues (+); conditions: tumors compared to a panel of normal tissues
# [2] = test system: tumor samples of other tumor types; assay: LC-MS detection/over-presentation of peptides on additional tumor types vs normal tissues; parameters: species or system human; conditions: for Additional Entities: additional tumor types: over-presentation on more than 5% of measured tumor samples, or presentation on more than 5% with ratio of geometric means tumor vs normal larger than 3; for Other relevant organs/diseases: additional tumor types: over-presented on more than 5% of measured tumor samples, or presented on more than 5% with ratio of geometric means tumor vs normal tissues larger than 3
# RCC samples = assay: Label-free relative LC-MS quantitation of HLA-presented peptides (presentation profile/score), RCC vs normal tissues; parameters: species or system human; key: very highly over-presented on tumors compared to a panel of normal tissues (+++); highly over-presented on tumors compared to a panel of normal tissues (++); over-presented on tumors compared to a panel of normal tissues (+); conditions: tumors (RCC) compared to a panel of normal tissues
Substance,Gene Expression (expression score) [1],Additional Entities [2],Other relevant organs/diseases [2],Peptide Presentation (presentation score) (RCC samples)
65: peptide found in TPI1 (gene looked up) (IIYGGSVTGA; listed as Homo sapiens) [compound 65],+,"CLL, Melanoma, Urinary bladder cancer, Uterine Cancer",Breast,
87: peptide found in APOL1 (gene looked up) (LADGVQKV; listed as Homo sapiens) [compound 87],++,,"Breast, Melanoma",
63: peptide found in ERAP1 (gene looked up) (GLIEDHFDVTV; listed as Homo sapiens) [compound 63],+,SCLC,"Lung, Colon, Rectum, Prostate, Leukocytes, Melanoma, Ovary",
90 (FTLEKNFVI; listed as Homo sapiens) [compound 90],,"CRC, BRCA, PC",Prostate,++
115 (LLDPKTIFL; listed as Homo sapiens) [compound 115],,,"Colon, Rectum, Liver",+++
103 (KLQDGLLHI; listed as Homo sapiens) [compound 103],,"SCLC, PC, Melanoma, OC, NHL","Brain, Colon, Rectum, Liver",+++
2 (ILWREVVTL; listed as Homo sapiens) [compound 2],,"Melanoma, NHL",Ovary,+++
43 (YLKDELDEL; listed as Homo sapiens) [compound 43],,"Esophageal Cancer, Gallbladder Cancer, Bile Duct Cancer, NHL",,+++
135: peptide found in SLC16A3 (gene looked up) (VVDEGPTGV; listed as Homo sapiens) [compound 135],,,"Lung, Brain, Stomach, Liver, Pancreas, Leukocytes, Breast, Ovary, Esophagus",+++
47 (TLAEVRAVQEI; listed as Homo sapiens) [compound 47],,,"Liver, Melanoma",+
104 (ALFEGVVRQI; listed as Homo sapiens) [compound 104],,Urinary bladder cancer,"Liver, Melanoma, Esophagus",+++
116 (GLVDIMVHL; listed as Homo sapiens) [compound 116],,,Ovary,+++
121 (ALLRTVVSV; listed as Homo sapiens) [compound 121],,,"Lung, Liver, Pancreas, Breast, Ovary",++
113 (SLFDWNVKL; listed as Homo sapiens) [compound 113],,"SCLC, BRCA, Esophageal Cancer, Gallbladder Cancer, Bile Duct Cancer, AML, NHL","Liver, Prostate",++
4 (FLSQDIITV; listed as Homo sapiens) [compound 4],,Uterine Cancer,,+++
97 (TLISELVQA; listed as Homo sapiens) [compound 97],,"SCLC, GC, HCC, CLL, Urinary bladder cancer, Uterine Cancer, Gallbladder Cancer, Bile Duct Cancer, NHL","Lung, Colon, Rectum, Pancreas, Prostate, Breast, Melanoma, Ovary, Esophagus",+
108 (VLISVLQAI; listed as Homo sapiens) [compound 108],,"BRCA, AML, NHL",Leukocytes,++
86 (GLLQGKLALL; listed as Homo sapiens) [compound 86],,"Uterine Cancer, NHL","Liver, Melanoma",+
107 (VLMDLKALLL; listed as Homo sapiens) [compound 107],,AML,"Prostate, Leukocytes, Ovary",++
125 (KLDPTKTTL; listed as Homo sapiens) [compound 125],,,Prostate,+++
48 (VVASNIMEV; listed as Homo sapiens) [compound 48],,"BRCA, Melanoma",,+++
29 (ILLDLEQAL; listed as Homo sapiens) [compound 29],,"Melanoma, Urinary bladder cancer, Uterine Cancer, Gallbladder Cancer, Bile Duct Cancer, AML, NHL, OC","Lung, Pancreas, Prostate, Breast, Ovary",+

Substance,Gene Expression (expression score) [1],Additional Entities [2],Other relevant organs/diseases [2],Peptide Presentation (presentation score) (RCC samples)
133 (QLIDYERQL; listed as Homo sapiens) [compound 133],,,"Lung, Colon, Rectum, Liver, Pancreas, Esophagus",++
126: peptide found in IGF2BP3 (gene looked up) (KIQEILTQV; listed as Homo sapiens) [compound 126],,,"Lung, Brain, Stomach, Colon, Rectum, Liver, Pancreas, Leukocytes, Ovary, Esophagus",+++
24 (FTLGTTVFL; listed as Homo sapiens) [compound 24],,"Melanoma, Uterine Cancer, NHL","Liver, Prostate, Leukocytes, Esophagus",++
124 (ILSPLSVAL; listed as Homo sapiens) [compound 124],,,"Liver, Pancreas",+
88 (TLAELHISL; listed as Homo sapiens) [compound 88],,"CLL, Esophageal Cancer",Ovary,+
40 (YIQEHLLQI; listed as Homo sapiens) [compound 40],,Melanoma,,++
61 (SLMGILLRI; listed as Homo sapiens) [compound 61],,BRCA,Leukocytes,+++
72 (YSLEKVFGI; listed as Homo sapiens) [compound 72],,"Brain Cancer, GC, CRC, PrC, BRCA, Melanoma, OC, Urinary bladder cancer, AML, PC",Liver,+
44 (ALFSFVTAL; listed as Homo sapiens) [compound 44],,,"Lung, Melanoma, Ovary",+
92 (FLFRDILEL; listed as Homo sapiens) [compound 92],,"Melanoma, AML",,+++
127 (VLAPLFVYL; listed as Homo sapiens) [compound 127],,,"Lung, Pancreas, Breast, Melanoma",++
17 (ILAQQVHAL; listed as Homo sapiens) [compound 17],,Uterine Cancer,,+++
39 (YLLNLNHLGL; listed as Homo sapiens) [compound 39],,NHL,"Lung, Liver, Leukocytes",+++
136 (YQDPHSTAV; listed as Homo sapiens) [compound 136],,,"Brain, Liver",++
49 (VLIVEVPGV; listed as Homo sapiens) [compound 49],,"Gallbladder Cancer, Bile Duct Cancer, OC",Ovary,+++
129: peptide found in RCN1 (gene looked up) (VLAPRVLRA; listed as Homo sapiens) [compound 129],,,"Lung, Brain, Colon, Rectum, Liver, Pancreas, Ovary",++
134 (VADKIHSV; listed as Homo sapiens) [compound 134],,,"Stomach, Pancreas, Esophagus",+++
23 (YIQEVVQYI; listed as Homo sapiens) [compound 23],,,Liver,+++
119 (RLHDENILL; listed as Homo sapiens) [compound 119],,,"Lung, Brain, Colon, Rectum, Liver, Pancreas, Prostate, Ovary, Esophagus",+++
21 (RLIQGDQILSV; listed as Homo sapiens) [compound 21],,"SCLC, BRCA, Esophageal Cancer, Urinary bladder cancer, Uterine Cancer, Gallbladder Cancer, Bile Duct Cancer, OC","Lung, Colon, Rectum, Liver, Ovary",+++
27 (SLSDLLVSL; listed as Homo sapiens) [compound 27],,"CRC, Melanoma, Uterine Cancer, AML, NHL","Lung, Liver, Pancreas, Leukocytes",++
130 (ALPTVLVGV; listed as Homo sapiens) [compound 130],,,"Lung, Brain, Stomach, Colon, Rectum, Liver, Melanoma, Esophagus",++
